# Source: PubChem BioAssay AID504793 (Drosophila RNAi Screening Center, 2011)
# Screen: 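Knock-downs allowing continued mitosis even though DNA is damaged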 (primary screen)
# System: Drosophila S2R+ cells
# Knock-down reagent: long dsRNA against Drosophila genes, about 0.25 µg dsRNA per well
# Time to read-out: 4 days of dsRNA, then 4 hours of drug before read-out
# Conditions: doxorubicin 0.5 µM for 4 hours to cause double-strand breaks, in cells also given a low, harmless dose of dsRNA against nbs to sensitise the assay
# Detection: 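Mitotic index as the number of phospho-histone H3-positive cells in each well following doxorubicin, given as raw counts without normalisation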
# Direction: mitotic cells: higher = more cells in mitosis, weaker G2 arrest
# Hit rule: 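a call needs confirmation in secondary tests, with other dsRNAs and a check of mitotic timing without damage, not just a high primary count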
# Meaning of the calls: active = confirmed in follow-up tests; inactive = not confirmed
# The screen tested about 23,000 reagents; this is an unselected part of those with a known target gene and a result. Of all reagents, 62 (0.27%) were called active. 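Calls come from follow-up tests whose scores are not deposited, so confirmed genes may have low counts here; counts are not normalised per plate.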 Raw values are not corrected between plates. The numbers tell different reagents against one gene apart.
gene knocked down,reagent,"mitotic cells, replicate 1",activity call
PRL-1,1,2,inactive
PRL-1,2,8,inactive
path,1,9,inactive
CG3592,1,17,inactive
chif,1,11,inactive
CG32428,1,8,inactive
CG32428,2,2,inactive
CG32428,3,9,inactive
Lsp1alpha,1,10,inactive
Lsp1alpha,2,3,inactive
CG15614,1,5,inactive
CG18605,1,7,inactive
CG18605,2,13,inactive
ms(2)34Fe,1,6,inactive
CG33108,1,11,inactive
CG33108,2,2,inactive
magu,1,3,inactive
CG31249,1,8,inactive
Drep3,1,8,inactive
Drep3,2,11,inactive
Ir52d,1,17,inactive
eIF1A,1,7,inactive
eIF3m,1,8,inactive
eIF3m,2,4,inactive
ewg,1,17,inactive
ewg,2,10,inactive
Ets65A,1,6,inactive
Ets65A,2,4,inactive
Ets65A,3,14,inactive
Cmtr1,1,10,inactive
Cmtr1,2,9,inactive
Ifrd1,1,3,inactive
Ifrd1,2,5,inactive
CG5697,1,1,inactive
Upf1,1,8,inactive
ppk,1,2,inactive
ppk,2,9,inactive
kis,1,7,inactive
kis,2,5,inactive
kis,3,12,inactive
kis,4,7,inactive
CG14147,1,7,inactive
CG15278,1,5,inactive
CG11977,1,9,inactive
CG13766,1,6,inactive
CG13766,2,7,inactive
